# These are yes or no findings as the source states them, for the method shown. In cells and extracts the contact can be indirect. Some entries that bind do so weakly or less than the wild type. Tags and fused reporters may be left off the sequences shown.
# Chains of the proteins cited; added tags and fusions are not shown.
# UniProt P50750: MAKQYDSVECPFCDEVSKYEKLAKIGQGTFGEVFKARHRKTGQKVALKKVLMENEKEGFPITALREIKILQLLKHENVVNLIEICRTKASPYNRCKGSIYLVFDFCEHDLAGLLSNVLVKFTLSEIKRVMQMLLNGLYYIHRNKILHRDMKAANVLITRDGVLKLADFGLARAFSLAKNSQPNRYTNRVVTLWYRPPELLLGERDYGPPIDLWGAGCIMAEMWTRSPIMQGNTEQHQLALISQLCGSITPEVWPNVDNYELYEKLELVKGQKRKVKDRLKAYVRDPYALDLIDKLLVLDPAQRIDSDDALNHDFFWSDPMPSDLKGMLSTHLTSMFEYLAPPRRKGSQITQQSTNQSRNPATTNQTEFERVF
# T1: FLAG-tagged AF4 (human) (UniProt P51825)
# T1 sequence: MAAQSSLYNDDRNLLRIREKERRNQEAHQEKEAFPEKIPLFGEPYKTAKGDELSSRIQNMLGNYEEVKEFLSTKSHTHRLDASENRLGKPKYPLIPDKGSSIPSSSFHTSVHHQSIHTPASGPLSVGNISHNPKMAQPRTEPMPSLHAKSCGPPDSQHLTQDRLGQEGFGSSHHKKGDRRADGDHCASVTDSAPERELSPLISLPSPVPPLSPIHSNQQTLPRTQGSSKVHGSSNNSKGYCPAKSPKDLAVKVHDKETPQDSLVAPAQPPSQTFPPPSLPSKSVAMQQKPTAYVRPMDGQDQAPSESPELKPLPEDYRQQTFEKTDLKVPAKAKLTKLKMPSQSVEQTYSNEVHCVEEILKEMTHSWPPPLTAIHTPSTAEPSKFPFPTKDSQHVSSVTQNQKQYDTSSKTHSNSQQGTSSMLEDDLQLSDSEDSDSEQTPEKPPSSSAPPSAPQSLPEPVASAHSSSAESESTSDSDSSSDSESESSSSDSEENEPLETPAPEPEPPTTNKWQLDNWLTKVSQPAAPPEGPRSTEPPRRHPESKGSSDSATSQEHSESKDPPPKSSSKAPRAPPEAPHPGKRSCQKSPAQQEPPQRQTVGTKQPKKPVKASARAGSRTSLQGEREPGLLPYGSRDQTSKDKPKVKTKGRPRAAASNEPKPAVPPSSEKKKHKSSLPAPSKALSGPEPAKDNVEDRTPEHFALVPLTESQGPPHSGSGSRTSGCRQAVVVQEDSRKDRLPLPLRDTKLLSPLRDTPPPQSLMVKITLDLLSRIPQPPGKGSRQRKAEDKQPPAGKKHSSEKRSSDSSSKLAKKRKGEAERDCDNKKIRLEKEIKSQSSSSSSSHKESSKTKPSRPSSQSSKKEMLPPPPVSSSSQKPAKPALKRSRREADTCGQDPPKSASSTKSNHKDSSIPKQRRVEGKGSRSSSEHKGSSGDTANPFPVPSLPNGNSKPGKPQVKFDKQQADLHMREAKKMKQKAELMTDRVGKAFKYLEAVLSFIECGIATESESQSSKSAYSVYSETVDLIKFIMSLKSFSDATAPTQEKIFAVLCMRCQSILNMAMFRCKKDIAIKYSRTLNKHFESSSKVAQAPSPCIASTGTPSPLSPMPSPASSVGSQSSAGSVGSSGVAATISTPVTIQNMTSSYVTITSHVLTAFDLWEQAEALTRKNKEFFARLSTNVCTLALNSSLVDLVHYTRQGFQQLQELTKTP
# Molecular target: T1, FLAG-tagged AF4 (human)
# Assay: co-IP; fanChIP–WB: chromatin fraction of 293T or 293T–LUC cells (cytoskeleton buffer extraction, MNase, lysis buffer), anti-FLAG M2 beads, five washes, western blot; SL1 components endogenous or exogenously expressed (one by one or all together); for the MLL fusions with co-expressed xAF4 and MENIN-HA
row,binding,Molecule
1,binds,CDK9 (from UniProt P50750 1-372)
2,binds,"ENL (protein, UniProt Q03111 1-559) MDNQCTVQVRLELGHRAQLRKKPTTEGFTHDWMVFVRGPEQCDIQHFVEKVVFWLHDSFPKPRRVCKEPPYKVEESGYAGFIMPIEVHFKNKEEPRKVCFTYDLFLNLEGNPPVNHLRCEKLTFNNPTTEFRYKLLRAGGVMVMPEGADTVSRPSPDYPMLPTIPLSAFSDPKKTKPSHGSKDANKESSKTSKPHKVTKEHRERPRKDSESKSSSKELEREQAKSSKDTSRKLGEGRLPKEEKAPPPKAAFKEPKMALKETKLESTSPKGGPPPPPPPPPRASSKRPATADSPKPSAKKQKKSSSKGSRSAPGTSPRTSSSSSFSDKKPAKDKSSTRGEKVKAESEPREAKKALEVEESNSEDEASFKSESAQSSPSNSSSSSDSSSDSDFEPSQNHSQGPLRSMVEDLQSEESDEDDSSSGEEAAGKTNPGRDSRLSFSDSESDNSADSSLPSREPPPPQKPPPPNSKVSGRRSPESCSKPEKILKKGTYDKAYTDELVELHRRLMALRERNVLQQIVNLIEETGHFNVTNTTFDFDLFSLDETTVRKLQSCLEAVAT"
3,binds,"TAF1C (endogenous) (protein, UniProt Q15572 1-869) MDFPSSLRPALFLTGPLGLSDVPDLSFMCSWRDALTLPEAQPQNSENGALHVTKDLLWEPATPGPLPMLPPLIDPWDPGLTARDLLFRGGCRYRKRPRVVLDVTEQISRFLLDHGDVAFAPLGKLMLENFKLEGAGSRTKKKTVVSVKKLLQDLGGHQPWGCPWAYLSNRQRRFSILGGPILGTSVASHLAELLHEELVLRWEQLLLDEACTGGALAWVPGRTPQFGQLVYPAGGAQDRLHFQEVVLTPGDNPQFLGKPGRIQLQGPVRQVVTCTVQGESKALIYTFLPHWLTCYLTPGPFHPSSALLAVRSDYHCAVWKFGKQWQPTLLQAMQVEKGATGISLSPHLPGELAICSRSGAVCLWSPEDGLRQIYRDPETLVFRDSSSWRWADFTAHPRVLTVGDRTGVKMLDTQGPPGCGLLLFRLGAEASCQKGERVLLTQYLGHSSPKCLPPTLHLVCTQFSLYLVDERLPLVPMLKWNHGLPSPLLLARLLPPPRPSCVQPLLLGGQGGQLQLLHLAGEGASVPRLAGPPQSLPSRIDSLPAFPLLEPKIQWRLQERLKAPTIGLAAVVPPLPSAPTPGLVLFQLSAAGDVFYQQLRPQVDSSLRRDAGPPGDTQPDCHAPTASWTSQDTAGCSQWLKALLKVPLAPPVWTAPTFTHRQMLGSTELRREEEEGQRLGVLRKAMARGQLLLQRDLGSLPAAEPPPAPESGLEDKLSERLGEAWAGRGAAWWERQQGRTSEPGRQTRRPKRRTQLSSSFSLSGHVDPSEDTSSPHSPEWPPADALPLPPTTPPSQELTPDACAQGVPSEQRQMLRDYMAKLPPQRDTPGCATTPPHSQASSVRATRSQQHTPVLSSSQPLRKKPRMGF"
